Measurements reported in PubChem BioAssay AID1259254 (NCATS, 2017).
Here is one part, drawn at random, of about 59,000 reagents tested. Of all reagents, about 1,550 (2.6%) are marked active. 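G2 share is only a proxy for re-replication; each gene was hit by three separate siRNAs, and active genes were retested.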 The numbers tell different reagents against one gene apart. Further read-outs or replicates are left out here. Not given: the amount of reagent.

- Purpose: 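Genome-wide screen for genes that prevent DNA re-replication in cancer cells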 (primary screen)
- Cells: human HCT116 colorectal cancer cells
- Knock-down reagent: single siRNA against human genes
- Timing: 3 days
- Read-out: 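Imaged Hoechst DNA stain sorts each cell into a cycle phase by DNA amount; per plate, G2 fraction set to 0% for non-targeting and 100% for GMNN siRNA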
- Direction: G2 robust z-score: higher = more G2 cells, more excess DNA replication
- Hit rule: 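Active siRNAs have a G2 robust z of 5 or more median absolute deviations over the median, which in these data means about 38% or higher of GMNN control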

G2 robust z-score, by gene and reagent
LRRC30: #1 -1.37 inactive; #2 0.0175 inactive; #3 1.33 inactive
B3GLCT: #1 -0.221 inactive; #2 -0.546 inactive; #3 -0.281 inactive
FER1L6-AS1: #1 -0.91 inactive; #2 -0.158 inactive; #3 0.739 inactive
APLNR: #1 -0.277 inactive; #2 1.77 inactive; #3 -0.927 inactive
NEMF: #1 0.126 inactive; #2 1.33 inactive; #3 0.915 inactive
SPAG8: #1 1.89 inactive; #2 -0.776 inactive; #3 -0.219 inactive
RPS26P50: #1 5.82 active; #2 2.6 inactive; #3 1.06 inactive
TBX22: #1 -0.817 inactive; #2 0.232 inactive; #3 -0.979 inactive
NHERF4: #1 2.31 inactive; #2 -0.824 inactive; #3 0.123 inactive
C1orf162: #1 2.22 inactive; #2 0.0338 inactive; #3 4.08 inactive

Copied from the listing for reference:
G2 robust z-score, by gene and reagent
SPAG8: #1 1.89 inactive; #2 -0.776 inactive; #3 -0.219 inactive
RPS26P50: #1 5.82 active
